PubChem BioAssay AID1224830 | NIAID – 2016

- Screen: 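Host factors that control LPS-induced TNF expression in human macrophages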 (primary screen)
- Cells: human THP-1 monocytic leukaemia cells, TNF dual-luciferase reporter clone, PMA-differentiated to macrophage-like cells
- Reagent: siRNA pool against human genes, 50 nM
- Time to read-out: LPS for 4 h, given about 3 days after siRNA transfection
- Treatment: bacterial LPS (TLR4 ligand), 10 ng/ml
- Measurement: 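Ratio of firefly to renilla light, scaled to the plate median and expressed as a robust z-score per replicate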
- Reading the numbers: TNF reporter robust z-score: higher = stronger TNF reporter response to LPS
- Rule for the call: 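Each well counts as active if its z-score is over 2.8 or under -1.5; controls are left without a call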
Shown is an unselected part of about 18,000 reagents. Over the whole deposit, about 2,900 (16%) were called active. 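Calls are made per well; low scores hint the gene aids the LPS response, high scores that it dampens it.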 Repeated entries: four replicate wells of each siRNA pool.

target	TNF reporter robust z-score	Outcome
SYNPO	0.32	inactive
SYNPO	0.66	inactive
SYNPO	-0.31	inactive
SYNPO	0.19	inactive
SETD9	0.54	inactive
SETD9	-0.17	inactive
SETD9	0.62	inactive
SETD9	1.23	inactive
NOXRED1	-0.38	inactive
NOXRED1	0.28	inactive
NOXRED1	-0.5	inactive
NOXRED1	-0.06	inactive
PHLDA3	1.67	inactive
PHLDA3	2.55	inactive
PHLDA3	3.28	active
PHLDA3	2.65	inactive
MYO1E	2.49	inactive
MYO1E	1.71	inactive
MYO1E	1.75	inactive
MYO1E	2.65	inactive
AGK	1.58	inactive
AGK	2.9	active
AGK	2.94	active
AGK	2.63	inactive
WT1-AS	-0.3	inactive
WT1-AS	0.45	inactive
WT1-AS	0.08	inactive
WT1-AS	-0.17	inactive
PPP1R9B	-1.02	inactive
PPP1R9B	-0.61	inactive
PPP1R9B	-0.83	inactive
PPP1R9B	-0.89	inactive
KLHL32	-0.39	inactive
KLHL32	-0.59	inactive
KLHL32	0.14	inactive
KLHL32	-0.26	inactive
KDR	-0.18	inactive
KDR	1.12	inactive
KDR	2.5	inactive
KDR	-0.43	inactive
CFI	1.35	inactive
CFI	-0.97	inactive
CFI	0.12	inactive
CFI	0.71	inactive
GLI2	3.5	active
GLI2	2.65	inactive
GLI2	3.01	active
GLI2	1.71	inactive
USP28	-0.19	inactive
USP28	0.76	inactive
USP28	0.27	inactive
USP28	1.53	inactive
HMBS	1.56	inactive
HMBS	2.85	active
HMBS	1.71	inactive
HMBS	4.42	active

In a second layout: results already given.
PPP1R9B — TNF reporter robust z-score: -1.02; Outcome: inactive
PPP1R9B — TNF reporter robust z-score: -0.61; Outcome: inactive
PPP1R9B — TNF reporter robust z-score: -0.83; Outcome: inactive
PPP1R9B — TNF reporter robust z-score: -0.89; Outcome: inactive
KLHL32 — TNF reporter robust z-score: -0.39; Outcome: inactive
KLHL32 — TNF reporter robust z-score: -0.59; Outcome: inactive
KLHL32 — TNF reporter robust z-score: 0.14; Outcome: inactive

Further entries follow.
target	TNF reporter robust z-score	Outcome
DCTN5	0.49	inactive
DCTN5	-0.26	inactive
DCTN5	1.83	inactive
DCTN5	2.47	inactive
KCNN2	1.47	inactive
KCNN2	1.75	inactive
KCNN2	-0.22	inactive
KCNN2	0.67	inactive
NUP62CL	1.33	inactive
NUP62CL	-0.46	inactive
NUP62CL	0.24	inactive
NUP62CL	-0.5	inactive
CHST14	-0.32	inactive
CHST14	-0.22	inactive
CHST14	-0.49	inactive
CHST14	-0.15	inactive
UPF3B	0.42	inactive
UPF3B	0.94	inactive
UPF3B	0.78	inactive
UPF3B	1.06	inactive
RUNX2	-1.9	active
RUNX2	-1.49	inactive
RUNX2	-1.69	active
RUNX2	-1.2	inactive
IL22	-1.15	inactive
IL22	-0.75	inactive
IL22	-1.11	inactive
IL22	-0.86	inactive
FOXJ3	-0.58	inactive
FOXJ3	-1.48	inactive
FOXJ3	-0.21	inactive
FOXJ3	0.5	inactive
CD63	2.66	inactive
CD63	2.4	inactive
CD63	0.32	inactive
CD63	0.72	inactive
ACTA1	-0.8	inactive
ACTA1	0.19	inactive
ACTA1	-0.04	inactive
ACTA1	1.14	inactive
BAG6	0.03	inactive
BAG6	0.22	inactive
BAG6	0.3	inactive
BAG6	0.42	inactive
KLF12	3.31	active
KLF12	5.09	active
KLF12	2.19	inactive
KLF12	3.16	active
BLID	-0.32	inactive
BLID	-0.52	inactive
BLID	0.17	inactive
BLID	-0.14	inactive
HADH	-0.35	inactive
HADH	0.45	inactive
HADH	-0.06	inactive
HADH	0.52	inactive
CSNK2A2	-2.11	active
CSNK2A2	-1.93	active
CSNK2A2	-2	active
CSNK2A2	-1.14	inactive
CFAP126	1.13	inactive
CFAP126	1.55	inactive
CFAP126	1.14	inactive
CFAP126	0.46	inactive
GSN	0.65	inactive
GSN	1.05	inactive
GSN	2.7	inactive
CFH	1.53	inactive
CFH	1.78	inactive
CFH	1.44	inactive
CFH	0.89	inactive
CCDC81	-0.37	inactive
CCDC81	-0.94	inactive
CCDC81	-0.16	inactive
IL27RA	-0.83	inactive
IL27RA	-0.64	inactive
IL27RA	-0.97	inactive
IL27RA	-0.35	inactive
SMARCC1	0.58	inactive
SMARCC1	2.15	inactive
SMARCC1	0.44	inactive
SMARCC1	1.21	inactive
PSIP1	-0.02	inactive
PSIP1	-0.39	inactive
PSIP1	-0.13	inactive
PSIP1	0.1	inactive
